Experimental findings from paper PMC12102395 are described below.

Chains of the proteins cited; added tags and fusions are not shown. Residues count along the entry.
UniProt Q9NZQ7, residues 19-290: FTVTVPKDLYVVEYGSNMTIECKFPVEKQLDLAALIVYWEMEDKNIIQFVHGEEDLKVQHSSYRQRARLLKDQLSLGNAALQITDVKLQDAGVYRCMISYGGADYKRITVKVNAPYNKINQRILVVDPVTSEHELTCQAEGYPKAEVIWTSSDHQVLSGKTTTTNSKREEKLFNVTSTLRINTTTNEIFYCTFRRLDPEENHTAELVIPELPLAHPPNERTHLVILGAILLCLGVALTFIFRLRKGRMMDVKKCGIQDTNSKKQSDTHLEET
UniProt P19474: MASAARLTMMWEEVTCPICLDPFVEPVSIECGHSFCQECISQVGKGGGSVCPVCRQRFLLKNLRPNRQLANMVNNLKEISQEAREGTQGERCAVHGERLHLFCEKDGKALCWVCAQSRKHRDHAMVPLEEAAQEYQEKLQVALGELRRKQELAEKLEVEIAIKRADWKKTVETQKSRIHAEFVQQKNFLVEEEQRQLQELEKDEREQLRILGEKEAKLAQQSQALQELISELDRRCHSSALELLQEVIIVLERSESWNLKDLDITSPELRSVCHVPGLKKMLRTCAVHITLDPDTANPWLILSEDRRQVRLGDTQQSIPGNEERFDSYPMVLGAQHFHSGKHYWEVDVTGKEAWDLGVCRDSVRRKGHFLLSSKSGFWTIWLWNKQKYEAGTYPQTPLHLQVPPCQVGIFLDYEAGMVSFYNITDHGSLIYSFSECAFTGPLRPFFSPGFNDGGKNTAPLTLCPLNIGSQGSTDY

Like-named read-outs stand apart in the source and are kept apart here. No constants are given. Whether binding was seen depends on the method and setting. Binding seen in cells or lysates may run through a third protein. Some results given as binding are weak or reduced against the parent protein; the word gives no strength. For some assays here: Sequences can lack the tags named with a protein.

The target of test [1] is T1, NBR1 (endogenous) (human (endogenous in DU145 and PC-3)) (UniProt Q14596).
T1 sequence: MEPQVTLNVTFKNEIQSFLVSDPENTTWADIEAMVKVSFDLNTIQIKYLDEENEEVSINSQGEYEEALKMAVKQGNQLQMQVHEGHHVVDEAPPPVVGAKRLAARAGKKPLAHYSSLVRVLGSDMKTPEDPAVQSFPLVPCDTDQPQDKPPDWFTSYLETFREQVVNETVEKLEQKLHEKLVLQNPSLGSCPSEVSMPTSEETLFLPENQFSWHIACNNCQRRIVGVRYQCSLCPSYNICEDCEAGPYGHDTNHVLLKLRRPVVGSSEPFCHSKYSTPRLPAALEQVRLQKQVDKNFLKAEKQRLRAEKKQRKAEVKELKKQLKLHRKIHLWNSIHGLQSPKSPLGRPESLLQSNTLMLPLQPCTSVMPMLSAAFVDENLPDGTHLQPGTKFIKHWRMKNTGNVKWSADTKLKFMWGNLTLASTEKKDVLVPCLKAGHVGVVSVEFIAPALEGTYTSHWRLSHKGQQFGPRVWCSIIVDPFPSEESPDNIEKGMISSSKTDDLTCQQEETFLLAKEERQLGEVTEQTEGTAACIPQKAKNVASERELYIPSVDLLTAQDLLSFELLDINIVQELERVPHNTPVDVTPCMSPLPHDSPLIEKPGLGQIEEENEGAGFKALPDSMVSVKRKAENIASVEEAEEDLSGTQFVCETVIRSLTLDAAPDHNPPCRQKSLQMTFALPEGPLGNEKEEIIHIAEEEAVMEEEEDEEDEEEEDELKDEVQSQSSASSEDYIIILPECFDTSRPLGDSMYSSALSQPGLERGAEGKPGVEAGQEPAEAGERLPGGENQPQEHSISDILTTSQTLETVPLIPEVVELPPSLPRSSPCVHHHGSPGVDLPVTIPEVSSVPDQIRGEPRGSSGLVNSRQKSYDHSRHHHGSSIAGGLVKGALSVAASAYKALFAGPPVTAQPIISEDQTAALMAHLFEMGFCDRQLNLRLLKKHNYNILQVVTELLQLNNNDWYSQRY
As to the kind of experiment: co-IP; endogenous proteins in lysates of DU145 and/or PC-3 cells; IP lysis buffer with protease inhibitors, IgG or specific primary antibody plus protein A/G magnetic beads overnight at 4 °C, three washes, western blot. In general terms: Immunoblotting shows a protein as a band on a membrane.

The target in a further test is His-PD-L1 (UniProt Q9NZQ7). As to the kind of experiment: co-IP; tagged proteins co-transfected into HEK-293T cells; IP lysis buffer with protease inhibitors, IgG or specific primary antibody plus protein A/G magnetic beads overnight at 4 °C, three washes, western blot.
In a further test the target is T2, Myc-NBR1 (UniProt Q14596).
T2 sequence: T1 sequence
The description is as above.

The target in test [2] is T1, NBR1 (endogenous) (human (endogenous in DU145 and PC-3)). As to the kind of experiment: co-IP; endogenous proteins in lysates of DU145 and/or PC-3 cells; IP lysis buffer with protease inhibitors, IgG or specific primary antibody plus protein A/G magnetic beads overnight at 4 °C, three washes, western blot. This is another data set of the same source.
For test [3], the target named is PD-L1 (endogenous) (human (endogenous in DU145 and PC-3)) (UniProt Q9NZQ7). The test is described as above.

With “TRIM21 (from UniProt P19474 1-475) (enzyme)”, the binding result in test [1] is listed as “binds”.

B1: Flag-USP8 (enzyme, UniProt P40818 1-1118)
chain: MPAVASVPKELYLSSSLKDLNKKTEVKPEKISTKSYVHSALKIFKTAEECRLDRDEERAYVLYMKYVTVYNLIKKRPDFKQQQDYFHSILGPGNIKKAVEEAERLSESLKLRYEEAEVRKKLEEKDRQEEAQRLQQKRQETGREDGGTLAKGSLENVLDSKDKTQKSNGEKNEKCETKEKGAITAKELYTMMTDKNISLIIMDARRMQDYQDSCILHSLSVPEEAISPGVTASWIEAHLPDDSKDTWKKRGNVEYVVLLDWFSSAKDLQIGTTLRSLKDALFKWESKTVLRNEPLVLEGGYENWLLCYPQYTTNAKVTPPPRRQNEEVSISLDFTYPSLEESIPSKPAAQTPPASIEVDENIELISGQNERMGPLNISTPVEPVAASKSDVSPIIQPVPSIKNVPQIDRTKKPAVKLPEEHRIKSESTNHEQQSPQSGKVIPDRSTKPVVFSPTLMLTDEEKARIHAETALLMEKNKQEKELRERQQEEQKEKLRKEEQEQKAKKKQEAEENEITEKQQKAKEEMEKKESEQAKKEDKETSAKRGKEITGVKRQSKSEHETSDAKKSVEDRGKRCPTPEIQKKSTGDVPHTSVTGDSGSGKPFKIKGQPESGILRTGTFREDTDDTERNKAQREPLTRARSEEMGRIVPGLPSGWAKFLDPITGTFRYYHSPTNTVHMYPPEMAPSSAPPSTPPTHKAKPQIPAERDREPSKLKRSYSSPDITQAIQEEEKRKPTVTPTVNRENKPTCYPKAEISRLSASQIRNLNPVFGGSGPALTGLRNLGNTCYMNSILQCLCNAPHLADYFNRNCYQDDINRSNLLGHKGEVAEEFGIIMKALWTGQYRYISPKDFKITIGKINDQFAGYSQQDSQELLLFLMDGLHEDLNKADNRKRYKEENNDHLDDFKAAEHAWQKHKQLNESIIVALFQGQFKSTVQCLTCHKKSRTFEAFMYLSLPLASTSKCTLQDCLRLFSKEEKLTDNNRFYCSHCRARRDSLKKIEIWKLPPVLLVHLKRFSYDGRWKQKLQTSVDFPLENLDLSQYVIGPKNNLKKYNLFSVSNHYGGLDGGHYTAYCKNAARQRWFKFDDHEVSDISVSSVKSSAAYILFYTSLGPRVTDVAT
Take B1: the binding result in the test with His-PD-L1 and with Myc-NBR1 was “binds” in each case.

B2: USP8 (endogenous) (enzyme, UniProt P40818 1-1118)
chain: B1 chain
Consider B2, for which the binding entry in test [2] and in test [3] was “binds” throughout.
